Literature values in patent US6476058B2 (Isotechnika, Inc., priority 1998, dated 2002).
For at least one compound, name, drawing or mass did not settle the structure.

Assays:
[1] = tested on: patients with mild to moderate hypertension; conditions: once daily, 24 hours postdose
[2] = tested on: patients with hypertension; normotensive subjects

CCOC(=O)C1=C(COCCN)NC(C)=C(C(=O)OC)C1c1ccccc1Cl (racemic) [amlodipine, (R.S.) 3-ethyl-5-1-methyl-2-(2-aminoethoxymethyl)-4-(2-chlorophenyl)-1,4-dihydro-6-methyl-3,5-pyridinedicarboxylate]
placebo-corrected reduction in blood pressure, standing position [1]: about 12/6 | placebo-corrected reduction in blood pressure, supine position [1]: 13/7 | greater blood pressure response in moderate versus mild hypertension ([2]; diastolic pressure 105-114 mmHg versus 90-104 mmHg): ~50% | change in blood pressures ([2]; normotensive subjects): +1/−2 mmHg
